Reference: the supplement of paper PMC4749390
Structures can show the parent of a compound that is named as a salt. Some of the results follow. Single values are uncertain here, since repeats match poorly.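 JEG3 cells stably carry tetracycline-induced wild-type human LRH-1, a heavily sumoylated nuclear receptor. APOC3 and MUC1 are SUMO-sensitive transcripts, raised by SUMO-less LRH-1 or UBC9 knockdown, measured by RT-qPCR against TBP and DMSO controls. A robust Z-score above +2 or below -2 marked a primary hit before toxicity and TBP filtering.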

Tested on: JEG3 expressing hLRH-1
Experiment: MUC1 transcript change (ddCt vs TBP and DMSO), Z-score over library; higher = higher MUC1 expression
Conditions: 10 µM; time (hr): 24

Structure (SMILES) | MUC1 transcript change (Z-score)
OC[C@H]1O[C@@H](O[C@@H]2[C@@H](CO)OC(O)(CO)[C@H]2O)[C@H](O)[C@@H](O)[C@H]1O (mixture of isomers) [lactulose] | -0.202
Cc1scc2c1N(C(=O)CN1CCN(C)CC1)c1ccccc1NC2=O [Telenzepine dihydrochloride] | 1.07
CN(C)CCC(c1ccc(Br)cc1)c1ccccn1 (stereo not drawn) [brompheniramine maleate] | -0.504
Cc1ccc2c(Cl)cc(Cl)c(O)c2n1 [chlorquinaldol] | -0.175
N=C(N)N/N=C/c1c(Cl)cccc1Cl [guanabenz acetate] | -0.226
NC(Cc1ccc(O)cc1)C(=O)O (stereo not drawn) [tyrosine] | 0.329
COC(=O)N/N=C/c1c[n+]([O-])c2ccccc2[n+]1[O-] [carbadox] | 0.733
O=C(O)c1ccccc1OP(=O)(O)O [fosfosal] | 0.12
CN(C)CCOC(=O)COc1ccc(Cl)cc1 [meclofenoxate hydrochloride] | 0.0743
CC(N)C12CC3CC(CC(C3)C1)C2 (stereo not drawn) [rimantadine hydrochloride] | -0.833
COC(=O)C(N)CS (stereo not drawn) [mecysteine hydrochloride] | 0.479
O=C1c2ccccc2C(=O)C1c1ccccc1 [phenindione] | 0.539
O=C(O)c1cc(-c2ccccc2)nc2ccccc12 [cinchophen] | 0.603
COc1ccc2cc1Oc1ccc(cc1)C[C@H]1c3c(cc4c(c3Oc3cc5c(cc3OC)CCN(C)[C@@H]5C2)OCO4)CCN1C [cepharanthine] | 0.505
CC(=O)N(O)CCCCCNC(=O)CCC(=O)N(O)CCCCCNC(=O)CCC(=O)N(O)CCCCCN [deferoxamine mesylate] | 2.81
Cc1cc(-c2ccc(N=Nc3ccc4c(S(=O)(=O)O)cc(S(=O)(=O)O)c(N)c4c3O)c(C)c2)ccc1N=Nc1ccc2c(S(=O)(=O)O)cc(S(=O)(=O)O)c(N)c2c1O [evans blue] | 0.752
O=C1CC2(CCCC2)CC(=O)N1CCCCN1CCN(c2ncccn2)CC1 [Buspirone hydrochloride] | 1.01
CN1CCC(=C2c3ccccc3Sc3ccccc32)CC1 [pimethixene maleate] | -0.649
O=C(CCCN1CCN(c2ccccn2)CC1)c1ccc(F)cc1 [azaperone] | 0.981
CCC(Cc1c(I)cc(I)c(N)c1I)C(=O)O (stereo not drawn) [iopanic acid] | 0.105
CCC(NC(C)C)C(O)c1ccc(O)c(O)c1 (stereo not drawn) [isoetharine mesylate] | -0.305
CC(=O)Nc1ccc(OC(C)=O)cc1 [diacetamate] | 0.476
C[C@]12CC[C@@H]3c4ccc(O)cc4CC[C@H]3[C@@H]1CC[C@@H]2OC(=O)CCC1CCCC1 [estradiol cypionate] | 0.853

2 of these compounds, set out differently:
CC(N)C12CC3CC(CC(C3)C1)C2 (stereo not drawn) [rimantadine hydrochloride]
  MUC1 transcript change (Z-score): -0.833
COC(=O)C(N)CS (stereo not drawn) [mecysteine hydrochloride]
  MUC1 transcript change (Z-score): 0.479
